Data source: PubChem BioAssay AID504784 (Drosophila RNAi Screening Center, 2011)
Screen: 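Fly genes whose silencing alters how much lipid cells keep in droplets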 (primary screen). System: Drosophila Kc167 embryonic cells. Reagent: long dsRNA against Drosophila genes, about 250 ng dsRNA per well. Duration: 4 days. Treatment: cells fed 400 µM oleic acid bound to BSA. Detection: 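Cells imaged and segmented; ratio of lipid droplet area to nuclear area, log-transformed, then normalised as a B-score over the screen; higher means more stored lipid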. Direction: droplet/nuclear area B-score: higher = more stored lipid (overstorage).
The screen tested about 17,000 reagents; this is a random part of those with a known target gene and a result. 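Each column is one replicate's B-score; the combined score over replicates was not deposited, so single values may mislead.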 Reagents against one gene are numbered here. Names joined by + are all predicted targets of the reagent. Reagent sequences are not shown.

gene,reagent no.,"droplet/nuclear area B-score, replicate 1","droplet/nuclear area B-score, replicate 2","droplet/nuclear area B-score, replicate 3"
"SmydA-9 (SET and MYND domain containing, arthropod-specific, member 9)",1,0.204,0.772,0.143
Alg-2 (Apoptosis-linked gene-2),1,-0.849,-1.86,
CG34382,1,-0.148,-0.301,
CG34382,2,0.758,0.508,
rush (rush hour),1,-1.53,,
CG14309,1,0.31,0.111,
CG4022,1,-0.604,-0.208,
CG3280 (retired record),1,0.0105,1.05,
Spn88Ea (Serpin 88Ea),1,-0.177,-2.16,
CBP (sarcoplasmic calcium-binding protein),1,-0.00443,0.611,-0.914
Sf3a1 (Splicing factor 3a subunit 1),1,-0.606,-1.22,
"E(spl)m8-HLH (Enhancer of split m8, helix-loop-helix)",1,1.03,-1.54,
CG9897 + asRNA:CR42742,1,0.248,-0.0596,
Tsp86D (Tetraspanin 86D),1,0.112,-1.18,
cnn (centrosomin),1,-1.23,0.0757,
cnn (centrosomin),2,-0.56,1.42,
RabX1,1,1.73,-2.03,
SkpE (SKP1-related E),1,-1.77,-2.67,
tau,1,0.256,2.13,
tau,2,0.0318,-0.0246,
CG34315 + Orc3,1,-0.00687,4.17,
RpL13A (Ribosomal protein L13A),1,1.95,5.01,
CG14491,1,-0.993,1.76,
Pop1 (POP1 ribonuclease P/MRP subunit),1,0.971,-0.0077,-0.0121
kon (kon-tiki),1,0.288,-0.488,
srw (shrew),1,-0.14,1.17,
Desi (Desiccate),1,-0.867,0.698,
sosie,1,-0.21,-0.0265,
sosie,2,-0.259,0.00804,
ApepP (Aminopeptidase P),1,0.52,-1.19,
CG1571,1,0.0432,0.886,
CG3071,1,0.738,2.35,
CG15358,1,-0.963,0.225,
Yif1 (Yip1-interacting factor 1),1,-0.63,-0.126,
CG34429,1,1.54,1.36,
CG17816,1,-1.57,-0.0393,0.0716
Pcd (pterin-4a-carbinolamine dehydratase),1,0.212,-0.448,
crc (cryptocephal),1,1.47,0.903,
lush,1,0.0613,-0.316,
oaf (out at first),1,0.65,-0.893,
CG42271,1,-0.0205,0.122,-0.00731
CG42271,2,0.577,-0.354,
Cpr72Ea (Cuticular protein 72Ea),1,0.0253,0.165,-0.37
CR10032 (pseudo),1,1.45,0.358,
CG9806,1,0.0346,0.319,-0.143
CG11756,1,-0.148,-0.988,0.0182
CG4553,1,1.86,1.14,
CG11356,1,0.287,-1.48,0.34
CG12224,1,0.598,-1.06,
Alh (Alhambra),1,-1.34,-1.67,
Alh (Alhambra),2,-1.46,-0.209,
Alh (Alhambra),3,0.101,-0.6,
CG7627,1,1.31,0.464,
CG1494,1,0.517,-0.26,
CG17508,1,-0.949,-0.258,
CG5466,1,0.118,-1.43,
CG5466,2,1.06,1.05,
NUCB1 (Nucleobindin 1),1,0.956,-0.2,
Sirup (Starvation-upregulated protein),1,1.15,-1.1,
nAChRalpha7 (nicotinic Acetylcholine Receptor alpha7),1,-0.662,5.22,
nAChRalpha7 (nicotinic Acetylcholine Receptor alpha7),2,1.57,0.165,
CG10465,1,-0.252,1.13,
CG6695,1,-0.052,-0.00336,
CG12012,1,-0.163,-1.54,
l(3)neo38 (lethal (3) neo38),1,-1.67,0.164,-1.8
l(3)neo38 (lethal (3) neo38),2,0.0142,-0.124,
l(3)neo38 (lethal (3) neo38),3,-0.00618,-0.0859,
Arp1 (Actin-related protein 1),1,2.74,2.48,
MED4 (Mediator complex subunit 4),1,0.457,0.295,
CG15743,1,-0.0349,1.24,1.14
CG3907,1,0.19,0.354,
futsch,1,-2.85,-1.28,
futsch,2,-0.196,-0.236,-0.905
futsch,3,0.0109,1.36,
futsch,4,-0.0151,-1.68,
CG13244,1,-0.38,-0.36,
REG (Proteasome regulator gamma),1,0.0824,-0.349,-0.312
CG10953,1,-0.805,-0.241,
Dph5 (Diphthamide methyltransferase),1,0.223,-0.716,
CG42788,1,0.396,1.81,
CG42788,2,-1.18,0.46,
CG42788,3,0.0053,-0.602,
CG13616,1,1.71,1.04,
CG14301,1,-2.03,-0.926,
CG10479,1,-0.145,-2.08,
CG15369,1,0.416,-0.224,0.0721
CG15239,1,0.282,0.684,
CG15208,1,1.97,-1.44,0.448
VhaAC39-2 (Vacuolar H[+] ATPase AC39 subunit 2),1,0.0234,-0.131,
Tps1 (Trehalose-6-phosphate synthase 1),1,0.473,-1.02,
asRNA:CR42743 + CG34162,1,0.00559,-0.339,
Gba1b (Glucocerebrosidase 1b),1,0.0204,-0.0133,
CG14285,1,-0.271,0.0972,
CG15865,1,-0.435,-0.0289,
Hap40 (Huntingtin-associated protein 40 kDa),1,2.65,1.02,1.4
dah (discontinuous actin hexagon),1,0.352,-0.0258,0.433
Ptp10D (Protein tyrosine phosphatase 10D),1,0.00991,0.00199,-0.56
CG18649,1,0.922,-1.08,
Cyp4p1 (Cytochrome P450 4p1),1,0.143,0.577,
CG12848,1,0.0119,-0.897,
CG15021,1,-1.28,0.658,-1.35
CG11550,1,0.828,-0.227,
CG11249,1,1.14,-0.12,
CG5790,1,0.482,0.54,
Tim13,1,0.912,0.705,

Records above whose target name starts with A or a (7):
gene,reagent no.,"droplet/nuclear area B-score, replicate 1","droplet/nuclear area B-score, replicate 2","droplet/nuclear area B-score, replicate 3"
Alg-2 (Apoptosis-linked gene-2),1,-0.849,-1.86,
ApepP (Aminopeptidase P),1,0.52,-1.19,
Alh (Alhambra),1,-1.34,-1.67,
Alh (Alhambra),2,-1.46,-0.209,
Alh (Alhambra),3,0.101,-0.6,
Arp1 (Actin-related protein 1),1,2.74,2.48,
asRNA:CR42743 + CG34162,1,0.00559,-0.339,
